According to publication PMC12115080:
These are yes or no findings as the source states them, for the method shown. In cells and extracts the contact can be indirect. Some entries that bind do so weakly or less than the wild type. Where a sequence is shown, tags or fusion partners need not be part of it.

Biological target: T1, AtBIK1 fused to the N-terminal fragment of YFP (Arabidopsis thaliana) (UniProt O48814)
T1 sequence: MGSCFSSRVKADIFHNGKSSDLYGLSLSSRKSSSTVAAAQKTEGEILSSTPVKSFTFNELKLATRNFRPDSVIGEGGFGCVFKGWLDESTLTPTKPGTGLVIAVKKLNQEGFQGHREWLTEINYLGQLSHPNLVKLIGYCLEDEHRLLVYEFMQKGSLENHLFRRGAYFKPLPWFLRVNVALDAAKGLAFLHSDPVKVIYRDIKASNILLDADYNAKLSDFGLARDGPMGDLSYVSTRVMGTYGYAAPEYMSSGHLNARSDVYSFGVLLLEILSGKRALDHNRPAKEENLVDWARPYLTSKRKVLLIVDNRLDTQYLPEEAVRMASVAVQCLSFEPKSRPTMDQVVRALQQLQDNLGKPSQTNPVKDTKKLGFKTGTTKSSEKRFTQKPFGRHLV
Assay: split reporter; BiFC: RLCKs fused with YFPc co-infiltrated into Nicotiana benthamiana leaves with AtBIK1 fused to YFPn; YFP fluorescence by confocal microscopy 48 h after infiltration

B1: At3g07070 fused with the C-terminal fragment of YFP (protein, UniProt Q9SFT7 1-414)
chain: MNCFSCFYFHEKKKVPRDSDNSYRRNGEVTGRDNNKTHPENPKTVNEQNKNNDEDKEVTNNIAAQTFSFRELATATKNFRQECLIGEGGFGRVYKGKLEKTGMIVAVKQLDRNGLQGNKEFIVEVLMLSLLHHKHLVNLIGYCADGDQRLLVYEYMSRGSLEDHLLDLTPDQIPLDWDTRIRIALGAAMGLEYLHDKANPPVIYRDLKAANILLDGEFNAKLSDFGLAKLGPVGDKQHVSSRVMGTYGYCAPEYQRTGQLTTKSDVYSFGVVLLELITGRRVIDTTRPKDEQNLVTWAQPVFKEPSRFPELADPSLEGVFPEKALNQAVAVAAMCLQEEATVRPLMSDVVTALGFLGTAPDGSISVPHYDDPPQPSDETSVEDSVAAEERERAVAEAMEWGVASRAHSRNPSAS
  binding: binds
